Data as given in PubChem BioAssay AID504834 (National Center for Advancing Translational Sciences (NCATS), 2011).
Among all 320,000 compounds or so, about 22,000 (6.9%) were called active. The shares of active, inactive and inconclusive entries below differ from those in the screen. Calls come from the whole dose curve; as a rule, active = well fitted inhibition curve with a large enough effect; inconclusive = small, poorly fitted or top-dose-only effect, or another doubt; inactive = no such curve, though single readings can be large or run the other way. Potencies of inconclusive entries are doubtful fits and often do not repeat.
Potency is the fitted concentration of half-maximal effect.

Test: Primary qHTS for delayed death inhibitors of the malarial parasite plastid, 96 hour incubation
Details: P. falciparum luciferase reporter growth; series mostly up to 28.7 µM
In short: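 Parasite growth measured via integrated firefly luciferase reporter in P. falciparum. Infected erythrocytes at 2% hematocrit, 0.05% parasitemia final were treated 96 hours at 37 C under 5% CO2, and luminescence was read.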
With `Cn1c(=O)c2c(nc(-n3ccnc3)n2Cc2ccc(Cl)cc2Cl)n(C)c1=O` the Potency was inconclusive: 11.7 µM [inhibitor, single point].
For `CCCCCCCSc1cc(OC)c(CCNC)cc1OC`, the Potency was inconclusive: 10.4 µM [inhibitor, single point].
With `COc1cccc(C#Cc2c(CO)[nH]c3ccccc23)c1` the Potency was inconclusive: 9.28 µM [inhibitor, partial curve, poor fit].
For `COc1ccccc1N(C)S(=O)(=O)c1ccc(Cl)c(C(=O)Nc2ccncc2)c1`, the Potency was inconclusive: 18.5 µM [inhibitor, single point].
For `CCOC(=O)c1ccccc1NC(=O)N[C@@H](C)C(=O)OC`, the Potency was “inactive”.
In the case of `COc1ccc(-c2noc(N3CCC(C(=O)NCCCN4CC(C)CC(C)C4)CC3)n2)cc1` (configuration not stated), the Potency is reported as inconclusive: 0.928 µM [inhibitor, full curve].
In the case of `CC1CCN(C(=O)/C(=C\c2ccccc2F)NC(=O)c2ccccc2)CC1`, the Potency is reported as “inactive”.
For `COc1ccc(-c2ccc(C(C)=O)cc2)cc1[C@H]1[C@@H]2C=CCC[C@@]2(C)C(=O)N1Cc1ccccc1`, the Potency was inconclusive: 10.4 µM [inhibitor, single point].
With `Cc1c(C(=O)NC(c2ccccn2)C(F)(F)F)oc2c(F)cccc12` (configuration not stated) the Potency was inconclusive: 13.1 µM [inhibitor, single point].
With `COc1ccc(-c2cc(-c3ccc(C)cc3)nc(SCc3nnc(-c4ccccc4)o3)c2C#N)cc1OC` the Potency was “inactive”.
For `CC(=O)N1N=C(c2ccc(Br)cc2)CC1c1cn(C)c2ccccc12` (configuration not stated), the Potency was inconclusive: 18.5 µM [inhibitor, single point].
With `O=C(NCCN1CCOCC1)c1ccc(CSCc2cccc(Cl)c2)o1` the Potency was inconclusive: 0.329 µM [inhibitor, full curve, poor fit].
In the case of `CC1CC(C)CN(S(=O)(=O)c2ccc(C(=O)Nc3sccc3C(N)=O)cc2)C1` (configuration not stated), the Potency is reported as inconclusive: 13.1 µM [inhibitor, partial curve].
For `COc1ccc(C2Nc3ccc(Br)cc3C(c3ccccc3)N2CC(=O)O)cc1` (configuration not stated), the Potency was inconclusive: 8.28 µM [inhibitor, single point].
With `CCOC(=O)N1CCC(NC(=O)c2ccc3c(c2)N(Cc2ccc(C)cc2)CCS3)CC1` the Potency was inconclusive: 11.7 µM [inhibitor, single point].
For `CCOc1ccc2c(c1)C(c1ccc(C)cc1)=NNC(c1ccc(C)cc1)=N2`, the Potency was “inactive”.
In the case of `COc1ccc(S(=O)(=O)N2CCOCC2)cc1NC(=O)c1cc(=O)[nH]c2ccccc12`, the Potency is reported as inconclusive: 18.5 µM [inhibitor, single point].
For `O=C(CCNS(=O)(=O)c1ccc2c(c1)CCC(=O)N2)NCc1cccnc1`, the Potency was inconclusive: 11.7 µM [inhibitor, partial curve, poor fit].
In the case of `Cc1ccc(C(=O)N/C(=C/c2ccco2)C(=O)NCC2CCCO2)cc1` (configuration not stated), the Potency is reported as inconclusive: 18.5 µM [inhibitor, single point].
With `CCC(C)(C)NC(=O)C(c1ccc(OC)cc1)N(C(=O)CCC(=O)Nc1cc(C)on1)c1cccc(F)c1` (configuration not stated) the Potency was inconclusive: 10.4 µM [inhibitor, single point].
In the case of `O=C(CCc1ccccc1)NC1(Cc2ccccc2)CCN(CCCc2ccccc2)C1=O` (configuration not stated), the Potency is reported as inconclusive: 14.7 µM [inhibitor, single point].
In the case of `C[C@@H](O)[C@H]1C(=O)N2C(C(=O)O)=C(S[C@@H]3CN[C@H](C(=O)N(C)C)C3)[C@H](C)[C@H]12`, the Potency is reported as “inactive”.
With `COc1ccc(OC)c(-c2cc(C(=O)Nc3c(C)nn(Cc4ccccc4)c3C)no2)c1` the Potency was inconclusive: 0.37 µM [inhibitor, partial curve, poor fit].
With `COc1ccccc1C(=O)N1CCN(Cc2nc3cc([N+](=O)[O-])ccc3n2C)CC1` the Potency was inconclusive: 18.5 µM [inhibitor, single point].
For `O=C(Nc1ccc(F)c(F)c1)c1ccc(-n2cncn2)c([N+](=O)[O-])c1`, the Potency was inconclusive: 18.5 µM [inhibitor, single point].
In the case of `O=C(O)c1cn(-c2ccc(N3CCCC3)c(F)c2)c2c(F)c(F)c(F)cc2c1=O`, the Potency is reported as “inactive”.
For `COC(=O)c1sc(N2C(=O)C(O)=C(C(=O)c3ccc(C)o3)C2c2cccs2)nc1C` (configuration not stated), the Potency was inconclusive: 18.5 µM [inhibitor, single point].
For `CCOc1ccccc1NC(=O)COC(=O)Cc1ccc(-c2ccccc2)cc1`, the Potency was “inactive”.
In the case of `Cc1cc(C)cc(NC(=O)C2CCCN(c3ncccn3)C2)c1` (configuration not stated), the Potency is reported as inconclusive: 1.85 µM [inhibitor, partial curve, poor fit].
With `CNCC[C@@H](Oc1ccc(C(F)(F)F)cc1)c1ccccc1` the Potency was inconclusive: 0.928 µM [inhibitor, full curve].
In the case of `COc1ccccc1CNC(=O)CSc1nc(=O)n(Cc2ccncc2)c2c1CCC2`, the Potency is reported as active: 14.7 µM.
With `COc1ccc(C(=O)C2CCN(CC(=O)Nc3ccc(OC)cc3OC)CC2)cc1` the Potency was “inactive”.
For `O=C1/C(=C/c2ccccc2F)SC(=S)N1CCC(=O)N1CCCCC1CCO` (configuration not stated), the Potency was inconclusive: 13.1 µM [inhibitor, partial curve, poor fit].
With `CCC(C)c1ccc(O)c(NC(=O)c2cccnc2)c1` (configuration not stated) the Potency was inconclusive: 11.7 µM [inhibitor, single point].
For `COc1cc2[nH]cc(C(=O)NCc3ccccc3)c(=O)c2cc1OC`, the Potency was inconclusive: 18.5 µM [inhibitor, single point].
With `COc1ccc(C2CC(c3cccs3)=NN2C(=O)CCC(=O)O)cc1` (configuration not stated) the Potency was inconclusive: 4.15 µM [inhibitor, single point].
In the case of `CCC(=O)N1c2ccc(S(=O)(=O)N3CCOCC3)cc2CC1C` (configuration not stated), the Potency is reported as inconclusive: 6.57 µM [inhibitor, partial curve, poor fit].
For `CCCn1c(=N)c(C(=O)NC2CCCC2)cc2c(=O)n3cccc(C)c3nc21`, the Potency was inconclusive: 18.5 µM [inhibitor, single point].
For `S=C(NCC1CCCO1)Nc1cccc(Cl)c1` (configuration not stated), the Potency was “inactive”.
For `CS(=O)(=O)N1CCN=C1SCc1ccc(F)cc1`, the Potency was inconclusive: 11.7 µM [inhibitor, partial curve, poor fit].
With `Cc1cccc(NC(=O)C2CCN(S(C)(=O)=O)CC2)c1C` the Potency was inconclusive: 18.5 µM [inhibitor, single point].
With `CC(=O)/C=C\c1ccc(OC(=O)c2cccnc2)cc1` the Potency was inconclusive: 14.7 µM [inhibitor, partial curve, poor fit].
For `O=C(COc1cc(O)c2c(=O)cc(-c3ccccc3)oc2c1)c1ccccc1`, the Potency was “inactive”.
With `Cc1ccccc1C(=O)Nc1ccc(O)cc1C(=O)O` the Potency was inconclusive: 18.5 µM [inhibitor, single point].
For `COc1cccc(/C=N/Nc2ncccc2[N+](=O)[O-])c1OC`, the Potency was “inactive”.
With `CC1=C(C)CC(C(=O)Nc2cccc(Cl)c2)C(C(=O)O)C1` (configuration not stated) the Potency was “inactive”.
With `COc1ccc(C(C)=O)cc1COC(=O)CCNS(=O)(=O)c1ccc(C(C)=O)cc1` the Potency was “inactive”.
In the case of `CCc1ccc(NC(=O)C(C)Sc2ccc(S(=O)(=O)N3CCN(C)CC3)cn2)cc1` (configuration not stated), the Potency is reported as “inactive”.
In the case of `CCCc1cc(=O)oc2c(C)c(OCC(=O)Nc3ccc(CN4CCOCC4)cc3)ccc12`, the Potency is reported as active: 4.15 µM.
With `Cc1ccc(S(=O)(=O)Nc2cc(-c3ccccc3)nn2C)cc1Cl` the Potency was “inactive”.
For `COc1cccc(CN(C)C(=O)CSCC(=O)Nc2cccc(C)c2)c1OC`, the Potency was inconclusive: 18.5 µM [inhibitor, single point].
With `COc1ccccc1NS(=O)(=O)c1cc(N2Cc3ccccc3C2=N)ccc1N1CCOCC1` the Potency was inconclusive: 18.5 µM [inhibitor, single point].
For `O=c1[nH]c(SCc2c(Cl)cccc2Cl)nc2ccccc12`, the Potency was “inactive”.
For `O=C(C(=O)N1CCN(c2ccccc2F)CC1)c1c[nH]c2ccccc12`, the Potency was inconclusive: 2.94 µM [inhibitor, single point].
In the case of `COc1cc2c(cc1OC)CC(=O)NC=C2`, the Potency is reported as “inactive”.
In the case of `O=C(CN1CCN(S(=O)(=O)c2ccc(C(F)(F)F)cc2)CC1)N1CCNC1=O`, the Potency is reported as inconclusive: 8.28 µM [inhibitor, partial curve].
For `Clc1ccc(Cn2ncc3c(NCc4ccco4)ncnc32)c(Cl)c1`, the Potency was “inactive”.
For `COc1cccc(N2C(=O)Nc3ccccc3C2(O)C(=O)NCc2ccc3c(c2)OCO3)c1` (configuration not stated), the Potency was inconclusive: 18.5 µM [inhibitor, single point].
For `CN(CCOc1ccc(Cl)cc1)C(=O)c1cc([N+](=O)[O-])ccc1N1CCOCC1`, the Potency was inconclusive: 18.5 µM [inhibitor, single point].
In the case of `COc1cccc(NC(=O)Nc2cc(C)on2)c1`, the Potency is reported as “inactive”.
For `COc1cc2cnc(-c3ccsc3)c(-c3ccc(F)cc3)c2cc1OC`, the Potency was inconclusive: 3.7 µM [inhibitor, single point].
For `CCCNC(=O)CC(NS(=O)(=O)c1ccc(Cl)cc1)c1ccco1` (configuration not stated), the Potency was inconclusive: 18.5 µM [inhibitor, single point].
In the case of `Cc1cccc(NC(=O)CN2C(=O)N/C(=C\c3ccc(N4CCOCC4)cc3)C2=O)c1`, the Potency is reported as inconclusive: 2.94 µM [inhibitor, full curve, poor fit].
For `c1ccc2c(c1)OCCOCCOc1ccccc1OCCOCCO2`, the Potency was inconclusive: 13.1 µM [inhibitor, single point].
For `CCOc1cccc(C(=O)Nc2ccc3oc(-c4cccnc4)nc3c2)c1`, the Potency was inconclusive: 11.7 µM [inhibitor, single point].
In the case of `COc1ccccc1CNC(=O)C1CC2Cn3c(nc4cc(C)c(C)cc43)C2N1C` (configuration not stated), the Potency is reported as inconclusive: 3.29 µM [inhibitor, partial curve, poor fit].
With `Cc1cc(C)cc(NC(=O)C(OC(=O)c2ccc(NC(=O)CC#N)cc2)c2ccccc2)c1` (configuration not stated) the Potency was active: 10.4 µM.
